Patent US5449814A, “Lignan analogues, methods of preparation thereof and anti-hyperlipemic agents” (Shionogi & Co., Ltd., priority 1991, dated 1995)
At least one compound was matched to its structure with a doubt left.

Test system: LDL
Assay: Inhibitory effect on oxidative modification of LDL (copper-induced, TBA reactive substances)
Type: biochemical, New Zealand albino rabbits
Details: rabbit LDL 0.2 mg protein/ml, 0.5 μM Cu^2+, 37° C., 24 hours; read-out: Inhibition of LDL oxidation IC50
Method: Inhibitory effect on oxidative modification of LDL
According to the method by Kita et al. (Proc. Natl. Acad. Sci., U.S.A, Vol. 84, 5928 (1987)), the experiment was proceeded as follows.
LDL was isolated from the blood of New Zealand albino rabbits fed with a diet containing 0.5% cholesterol for 3 weeks, and dissolved in phosphate-buffered physiological saline (final LDL concentration: 0.2 mg protein/ml). To this solution, each test compound in ethanol was added and then copper sulfate (final Cu^2+ concentration: 0.5 μM) was added thereto. The mixture was incubated at 37° C. for 24 hours.
After incubation, the content of lipid peroxides in each solution was determined as thiobarbituric acid reactive substances (TBA reactive substances). Concentration for 50% inhibition (IC50) was obtained from a linear regression curve of concentration of a compound versus % inhibition of oxidative modification of LDL. To quantify TBA reactive substances, proteins were removed from the solution after incubation, and the supernatant was examined for the content of TBA reactive substances by TBA method.

Row | Compound | IC50
1 | CCC(CC)C(=O)c1c(C(=O)OC)c(-c2ccc(OC)c(OC)c2)c2cc3c(cc2c1O)OCO3 [Example 33, 1-(3,4-Dimethoxyphenyl)-3-(2-ethyl-1-oxobutyl)-4-hydroxy-2-methoxycarbonyl-6,7-(methylenedioxy)naphthalene] | 3390 nM
2 | COC(=O)c1c(C(=O)c2ccc(Cl)cc2)c(O)c2cc3c(cc2c1-c1ccc(OC)c(OC)c1)OCO3 [Example 34, 3-(4-Chlorobenzoyl)-1-(3,4-dimethoxyphenyl)-4-hydroxy-2-methoxycarbonyl-6,7-(methylenedioxy)naphthalene] | 1750 nM
3 | CCC(CC)CC(=O)c1c(C(=O)OC)c(-c2ccc3c(c2)OCCO3)c2c(OC)c(OC)c(OC)cc2c1O [Example 60, 1-[3,4-(Ethylenedioxy)phenyl]-3-(3-ethyl-1-oxopentyl)-4-hydroxy-2-methoxycarbonyl-6,7,8-trimethoxynaphthalene] | 2030 nM
